No constants are given. Whether binding was seen depends on the method and setting. In cells and extracts the contact can be indirect. Here binding means that the protein was enriched with, or labelled near, the bait; the list need not be complete. Sequences can lack the tags named with a protein.
T1: SusD^lev with His6 tag (B. thetaiotaomicron) (UniProt Q8A6W4)
T1 sequence (chain, acyl-cysteine as the first residue (lipoprotein)): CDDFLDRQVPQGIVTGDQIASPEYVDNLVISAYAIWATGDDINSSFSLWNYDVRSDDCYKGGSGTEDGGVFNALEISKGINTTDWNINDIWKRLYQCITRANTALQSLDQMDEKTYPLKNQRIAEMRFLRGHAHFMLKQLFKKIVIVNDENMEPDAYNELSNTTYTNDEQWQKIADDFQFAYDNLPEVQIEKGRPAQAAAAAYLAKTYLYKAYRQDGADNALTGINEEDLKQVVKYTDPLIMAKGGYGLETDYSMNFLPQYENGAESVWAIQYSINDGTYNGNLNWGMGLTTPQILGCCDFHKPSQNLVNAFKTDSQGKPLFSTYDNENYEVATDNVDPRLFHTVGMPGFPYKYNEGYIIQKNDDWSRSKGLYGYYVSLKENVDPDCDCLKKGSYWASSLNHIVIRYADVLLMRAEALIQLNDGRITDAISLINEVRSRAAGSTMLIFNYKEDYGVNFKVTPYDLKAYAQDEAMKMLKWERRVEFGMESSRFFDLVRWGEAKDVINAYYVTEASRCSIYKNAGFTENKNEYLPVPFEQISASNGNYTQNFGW

B1: GH^lev (Bt1760; GH32 endo-levanase) (enzyme, UniProt Q8A6W6 21-523)
chain: CSDETDPILTQKNWDGTATYFQSSDEHGFSMYYKPQVGFVGDPMPFYDPVAKDFKVMYLQDYRPNPEATYHPIFGVATKDGATYESLGELISCGGRDEQDAAIGTGGTIYNPADKLYYTFYTGNKFKPSSDQNAQVVMVATSPDFKTWTKNRTFYLKGDTYGYDKNDFRDPFLFQTEDGVYHMLIATRKNGKGHIAEFTSADLKEWESAGTFMTMMWDRFYECPDVFKMGDWWYLIYSEQASFMRKVQYFKGRTLEDLKATTANDAGIWPDNREGMLDSRAFYAGKTASDGTNRYIWGWCPTRAGNDNGNVGDVEPEWAGNLVAQRLIQHEDGTLTLGVPDAIDRKYTSAQEVKVMAKDGNMIESGKTYTLGEGASVIFNRLKVHNKISFTVKTASNTDRFGISFVRGTDSASWYSIHVNADEGKANFEKDGDDAKYLFDNKFNIPADNEYRVTIYSDQSVCVTYINDQLSFTNRIYQMQKNPWSLCCYKGEITVSDVQVSTY
modifications: acyl-cysteine as the first residue (lipoprotein)
B2: SusC^lev (natural protein, B. thetaiotaomicron, UniProt Q8A6W3 26-1041, looked up)
chain: GQNITVKGNVTSKTDGQPIIGASVVETTATTNGTITDFDGNFTLSVPVNSTLKITYIGYKPVTVKAAAIVNVLLEEDTQMVDEVVVTGYTTQRKADLTGAVSVVKVDEIQKQGENNPVKALQGRVPGMNITADGNPSGSATVRIRGIGTLNNNDPLYIIDGVPTKAGMHELNGNDIESIQVLKDAASASIYGSRAANGVIIITTKQGKKGQIKINFDASVSASMYQSKMNVLNTEQYGRAMWQAYVNDGENPNGNALGYAYNWGYNADGNPVLYGMTLSKYLDSKNTMPVADTDWFDEITRTGVIQQYNLSVSNGSEKGSSFFSLGYYKNLGVIKDTDFDRFSARMNSDYKLIDDILTIGQHFTLNRTSEVQAPGGIIETALDIPSAIPVYASDGSWGGPVGGWPDRRNPRAVLEYNKDNRYTYWRMFGDAYVNLTPFKGFNLRSTFGLDYANKQARYFTYPYQEGTQTNNGKSAVEAKQEHWTKWMWNAIATYQLEVGKHRGDVMIGMELNREDDSHFSGYKEDFSILTPDYMWPDAGSGTAQAYGAGEGYSLVSFFGKMNYSYADRYLLSLTLRRDGSSRFGKNHRYATFPSVSLGWRITQENFMKELTWLDDLKLRASWGQTGNQEISNLARYTIYAPNYGTTDSFGGQSYGTAYDITGSNGGGVLPSGFKRNQIGNDNIKWETTTQTNVGIDFSLFKQSLYGSLEYYYKKATDILTEMAGVGVLGEGGSRWINSGAMKNQGFEFNLGYRNKTAFGLTYDLNGNISTYRNEILELPETVAANGKFGGNGVKSVVGHTYGAQVGYIADGIFKSQDEVDNHATQEGAAVGRIRYRDIDHNGVIDERDQNWIYDPTPSFSYGLNIYLEYKNFDLTMFWQGVQGVDIISDVKKKSDFWSASNVGFLNKGTRLLNAWSPTNPNSDIPALTRSDTNNEQRVSTYFVENGSFLKLRNIQLGYTVPAVISKKMRMDRLRFYCSAQNLLTIKSKNFTGEDPENPNFSYPIPVNITFGLNIGF
notes: SusC^lev, the TonB-dependent outer membrane transporter (SusC) of the levan PUL of B. thetaiotaomicron; Two copies stand in the utilisome (SusC2D2 core); written here without a tag; also called levan SusC; source: endogenous, B. thetaiotaomicron grown on fructose; co-purified from detergent-solubilised membranes (LDAO sample; DDM sample: Ni2+ column, SEC)

Molecular target: T1, SusD^lev with His6 tag (B. thetaiotaomicron)
Experiment: affinity purification with mass spectrometry; previously studied LDAO-purified SusCD^lev (His6 tag on SusD^lev) from B. theta; SDS-PAGE before and after boiling, weak extra bands identified by mass spectrometry

| binding | Binder |
| --- | --- |
| binds | B1 |
| binds | B2 |

Source: PMC7618045, “Outer membrane utilisomes mediate oligosaccharide uptake in gut Bacteroidetes” (Nature, 2023)
